Test results as given in article PMC5640428.

Sequences of proteins named here, by UniProt entry; tags and fusion partners are left off.
UniProt Q6Q477: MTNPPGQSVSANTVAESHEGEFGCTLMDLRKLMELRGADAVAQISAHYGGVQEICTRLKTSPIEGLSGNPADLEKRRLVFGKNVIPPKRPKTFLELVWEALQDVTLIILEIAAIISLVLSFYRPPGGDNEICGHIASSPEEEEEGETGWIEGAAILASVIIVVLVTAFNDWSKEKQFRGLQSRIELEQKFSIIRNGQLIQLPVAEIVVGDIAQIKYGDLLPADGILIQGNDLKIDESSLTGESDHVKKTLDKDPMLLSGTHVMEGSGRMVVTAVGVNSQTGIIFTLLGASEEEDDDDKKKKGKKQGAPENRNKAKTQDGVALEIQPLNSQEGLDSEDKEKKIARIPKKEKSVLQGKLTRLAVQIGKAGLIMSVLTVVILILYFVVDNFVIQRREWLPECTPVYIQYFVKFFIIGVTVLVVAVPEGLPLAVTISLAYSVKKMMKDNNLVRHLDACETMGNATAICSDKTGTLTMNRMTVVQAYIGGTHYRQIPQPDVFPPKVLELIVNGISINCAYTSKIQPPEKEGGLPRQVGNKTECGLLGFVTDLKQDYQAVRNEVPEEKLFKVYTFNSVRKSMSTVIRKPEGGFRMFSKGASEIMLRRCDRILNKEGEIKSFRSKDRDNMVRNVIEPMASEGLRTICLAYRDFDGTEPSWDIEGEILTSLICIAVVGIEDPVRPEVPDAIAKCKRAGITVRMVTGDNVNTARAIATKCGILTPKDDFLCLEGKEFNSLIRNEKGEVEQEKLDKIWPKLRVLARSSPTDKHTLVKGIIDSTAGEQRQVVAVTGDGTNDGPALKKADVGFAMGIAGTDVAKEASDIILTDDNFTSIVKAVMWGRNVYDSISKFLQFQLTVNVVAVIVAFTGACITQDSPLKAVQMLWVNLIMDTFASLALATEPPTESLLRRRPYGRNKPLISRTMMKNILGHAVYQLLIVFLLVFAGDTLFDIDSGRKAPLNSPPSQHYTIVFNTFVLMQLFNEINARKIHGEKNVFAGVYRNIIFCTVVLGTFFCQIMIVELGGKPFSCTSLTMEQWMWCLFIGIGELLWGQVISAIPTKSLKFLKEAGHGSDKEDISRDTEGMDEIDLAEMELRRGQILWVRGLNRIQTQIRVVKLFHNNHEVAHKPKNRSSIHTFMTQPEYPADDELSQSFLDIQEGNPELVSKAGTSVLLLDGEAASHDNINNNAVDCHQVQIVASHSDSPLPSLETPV

T1: native KCC2 (K+-Cl- cotransporter KCC2) (mouse (endogenous in brain)) (UniProt Q91V14)
T1 sequence: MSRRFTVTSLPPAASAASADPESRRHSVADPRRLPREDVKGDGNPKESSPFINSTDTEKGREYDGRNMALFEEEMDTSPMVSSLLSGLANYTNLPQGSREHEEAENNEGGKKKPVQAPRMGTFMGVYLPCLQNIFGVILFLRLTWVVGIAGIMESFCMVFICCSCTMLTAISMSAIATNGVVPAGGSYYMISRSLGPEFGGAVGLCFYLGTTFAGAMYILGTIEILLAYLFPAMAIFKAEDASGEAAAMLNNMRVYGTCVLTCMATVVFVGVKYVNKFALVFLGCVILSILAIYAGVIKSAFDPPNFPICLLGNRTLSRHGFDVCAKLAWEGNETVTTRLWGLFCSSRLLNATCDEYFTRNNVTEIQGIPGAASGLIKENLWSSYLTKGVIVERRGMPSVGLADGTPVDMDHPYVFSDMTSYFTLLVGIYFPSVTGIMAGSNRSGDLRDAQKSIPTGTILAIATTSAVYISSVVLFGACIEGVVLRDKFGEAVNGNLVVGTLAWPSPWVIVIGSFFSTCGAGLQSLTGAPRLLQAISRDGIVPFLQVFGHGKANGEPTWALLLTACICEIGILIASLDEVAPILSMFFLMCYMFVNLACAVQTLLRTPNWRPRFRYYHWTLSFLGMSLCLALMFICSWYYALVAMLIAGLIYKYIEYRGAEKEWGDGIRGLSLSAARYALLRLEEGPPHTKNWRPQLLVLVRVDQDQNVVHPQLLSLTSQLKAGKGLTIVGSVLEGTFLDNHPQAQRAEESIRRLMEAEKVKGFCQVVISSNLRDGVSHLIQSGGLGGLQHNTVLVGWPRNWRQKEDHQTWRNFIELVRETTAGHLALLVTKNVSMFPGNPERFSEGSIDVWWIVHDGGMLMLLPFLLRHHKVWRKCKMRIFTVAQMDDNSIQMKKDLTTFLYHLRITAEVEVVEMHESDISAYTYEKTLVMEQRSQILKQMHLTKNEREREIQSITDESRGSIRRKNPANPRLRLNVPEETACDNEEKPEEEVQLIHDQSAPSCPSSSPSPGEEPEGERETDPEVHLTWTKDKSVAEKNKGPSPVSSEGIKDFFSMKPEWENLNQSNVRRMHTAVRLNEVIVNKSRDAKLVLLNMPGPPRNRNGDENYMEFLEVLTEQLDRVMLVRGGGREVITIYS


Target: T1, native KCC2 (K+-Cl- cotransporter KCC2) (mouse (endogenous in brain))
Assay: affinity purification with mass spectrometry; C-terminal pan-KCC2 antibody (5 µg) on beads; CHAPS-solubilised membrane fractions (1 mg) of P50 mouse brain; parallel IgG control

Molecule | binding
ATP2B4 (from UniProt Q6Q477 1-1205) | binds
JAGN1 (protein, UniProt Q5XKN4 1-183) MASRAGPRAAGTDGSDFQHRERVAMHYQMSVTLKYEIKKLIYVHLVIWLLLVAKMSVGHLRLLSHDQVAMPYQWEYPYLLSIVPSVLGLLSFPRNNISYLVLSMISMGLFSIAPLIYGSMEMFPAAQQLYRHGKAYRFLFGFSAVSVMYLVLVLAVQVHAWQLYYSKKLLDSWFTSTQEKKRK | binds

Now from value to molecule:

binding | Molecule
binds | SLC44A1 (protein, UniProt Q6X893 1-653) MGCCSSASAAQSSKREWKPLEDRSCTDIPWLLLFVLFCIGMGFICGFSVATGAAARLVSGYDSYGNICGQRNAKLEAIPNSGLDHTHRKYVFFLDPCNLDLINRKIKSIALCVAACPRQELKTLSDVQKFAEINGSALCSYNIKPSEYTLTSKSSGFCPKLPVPASAPIPFFHRCAPVNISCYAKFAEALITFVSDNSVLHRLISGVMTSKEIILGLCLLSLVLSMILMVIIRYISRVLVWILTVLVILGSLGGTGVLWWLYAKQRRSPKEAVIPEQLQIAEDNLRALLIYAISATVFTVILFLIMLVMRKRVALTIALFHVAGKVFIHLPLLVFQPFWTFFALVLFWAYWIMTLLFLGTTGSAVQNEQGFVEYKISGPLQYMWWYHVVGLIWISEFILACQQMTVAGAVVTYYFTRDKRNLPFTPILASVNRLIRYHLGTVAKGSFIITLVKIPRMVLMYIHSQLKGKENACARCMLKSCICCLWCLEKCLSYLNQNAYTATAINSTNFCTSAKDAFVILVENALRVAAINTVGDFMLFLGKVLIVCSTGLAGIMLLNYQQDYTVWVLPLIIVCLFAFLVAHCFLSIYEMVVDVLFLCFAIDTKYNDGSPGREFYMDKVLMEFVENSRKAMKEAGKGGAADARELKPMLRKR
binds | SLC2A1 (protein, UniProt P17809 1-492) MDPSSKKVTGRLMLAVGGAVLGSLQFGYNTGVINAPQKVIEEFYNQTWNHRYGEPIPSTTLTTLWSLSVAIFSVGGMIGSFSVGLFVNRFGRRNSMLMMNLLAFVAAVLMGFSKLGKSFEMLILGRFIIGVYCGLTTGFVPMYVGEVSPTALRGALGTLHQLGIVVGILIAQVFGLDSIMGNADLWPLLLSVIFIPALLQCILLPFCPESPRFLLINRNEENRAKSVLKKLRGTADVTRDLQEMKEEGRQMMREKKVTILELFRSPAYRQPILIAVVLQLSQQLSGINAVFYYSTSIFEKAGVQQPVYATIGSGIVNTAFTVVSLFVVERAGRRTLHLIGLAGMAGCAVLMTIALALLERLPWMSYLSIVAIFGFVAFFEVGPGPIPWFIVAELFSQGPRPAAIAVAGFSNWTSNFIVGMCFQYVEQLCGPYVFIIFTVLLVLFFIFTYFKVPETKGRTFDEIASGFRQGGASQSDKTPEELFHPLGADSQV

Target: T1, native KCC2 (K+-Cl- cotransporter KCC2) (mouse (endogenous in brain))
Assay: affinity purification with mass spectrometry; anti-KCC2 antibodies (C-terminal, N-terminal KCC2b, pS940) cross-linked with DMP to GammaBind IgG beads; C12E9-solubilised whole-brain membrane fractions of P5 and P50 mice; 4 hr, 4°C; parallel IgG/IgY controls

Molecule | binding
PDIA6 (protein, UniProt Q922R8 20-440) LYSSSDDVIELTPSNFNREVIQSDGLWLVEFYAPWCGHCQRLTPEWKKAATALKDVVKVGAVNADKHQSLGGQYGVQGFPTIKIFGANKNKPEDYQGGRTGEAIVDAALSALRQLVKDRLGGRSGGYSSGKQGRGDSSSKKDVVELTDDTFDKNVLDSEDVWMVEFYAPWCGHCKNLEPEWAAAATEVKEQTKGKVKLAAVDATVNQVLASRYGIKGFPTIKIFQKGESPVDYDGGRTRSDIVSRALDLFSDNAPPPELLEIINEDIAKKTCEEHQLCVVAVLPHILDTGAAGRNSYLEVLLKLADKYKKKMWGWLWTEAGAQYELENALGIGGFGYPAMAAINARKMKFALLKGSFSEQGINEFLRELSFGRGSTAPVGGGSFPTITPREPWDGKDGELPVEDDIDLSDVELDDLEKDEL | binds
BASP1 (protein, UniProt Q91XV3 1-226) MGGKLSKKKKGYNVNDEKAKDKDKKAEGAGTEEEGTPKESEPQAAADATEVKESTEEKPKDAADGEAKAEEKEADKAAAAKEEAPKAEPEKSEGAAEEQPEPAPAPEQEAAAPGPAAGGEAPKAGEASAESTGAADGAAPEEGEAKKTEAPAAAGPEAKSDAAPAASDSKPSSAEPAPSSKETPAASEAPSSAAKAPAPAAPAAAEPQAEAPAAAASSEQSVAVKE | binds
KCNAB2 (protein, UniProt P62482 1-367) MYPESTTGSPARLSLRQTGSPGMIYSTRYGSPKRQLQFYRNLGKSGLRVSCLGLGTWVTFGGQITDEMAEHLMTLAYDNGINLFDTAEVYAAGKAEVVLGNIIKKKGWRRSSLVITTKIFWGGKAETERGLSRKHIIEGLKASLERLQLEYVDVVFANRPDPNTPMEETVRAMTHVINQGMAMYWGTSRWSSMEIMEAYSVARQFNLIPPICEQAEYHMFQREKVEVQLPELFHKIGVGAMTWSPLACGIVSGKYDSGIPPYSRASLKGYQWLKDKILSEEGRRQQAKLKELQAIAERLGCTLPQLAIAWCLRNEGVSSVLLGASNAEQLMENIGAIQVLPKLSSSIVHEIDSILGNKPYSKKDYRS | binds
SFXN3 (protein, UniProt Q91V61 1-321) MGDLPLNINIQEPRWDQSTFLGRARHFFTVTDPRNLLLSGEQLEASRNIVQNYRAGVATPGLTEDQLWRAKYVYDSAFHPDTGEKVVLIGRMSAQVPMNMTITGCMLTFYRKTPTVVFWQWVNQSFNAIVNYSNRSGDAPITVQQLGTAYVSATTGAVATALGLKSLTKHLPPLVGRFVPFAAVAAANCINIPLMRQRELQVGIPVTDEAGQRLGHSVTAAKQGIFQVVISRIGMAIPAMAIPPVIMNTLEKKDFLKRRPWLGAPLQVGLVGFCLVFATPLCCALFPQRSSIHVTRLEPELRAQIQAQNPSIDVVYYNKGL | binds
NDUFA8 (protein, UniProt Q9DCJ5 1-172) MPGIVELPTLEELKVEEVKVSSAVLKAAAHHYGAQCDKTNKEFMLCRWEEKDPRRCLKEGKLVNGCALNFFRQIKSHCAEPFTEYWTCLDYSNMQLFRHCRQQQAKFDQCVLDKLGWVRPDLGQLSKVTKVKTDRPLPENPYHSRARPEPNPVIEGDLKPAKHGTRFFFWTV | binds

Now from value to molecule:

binding | Molecule
binds | SRCIN1 (protein, UniProt Q9QWI6 1-1250) MQPWQCLRRFALAWWERTAEGRARSPREEVGPRDPGGRGEPDPERSSPPMLSADDAEYPREYRTLGGGGGGGSGGRRFSNVGLVHTSERRHTVIAAQSLEALSGLQKADADRKRDAFMDHLKSKYPQHALALRGQQDRMREQVGGWTVDPVCLLSSLCSHLHGDSTPSGAGQPAQQPNYWSFKTRSSRHTQGAQPGLADQAAKLSYASAESLETMSEAELPLGFSRMNRFRQSLPLSRSASQTKLRSPGVLFLQFGEETRRVHITHEVSSLDTLHALIAHMFPQKLTMGMLKSPNTAILIKDEARNVFYELEDVRDIQDRSIIKIYRKEPLYAAFPGSHLTNGDLRREMVYASRESSPTRRLNNLSPASHLASSSPPPGLPSGLPSGLPSGSPSRSRLSYAGGRPPSYAGSPVHHAAERLGGAPTGQGVSPSPSAILERRDVKPDEDLAGKAGGMVLVKGEGLYADPYGLLHEGRLSLAAAAETHSHTRARAACTSGVPCALSAPTPLPRCSPTWRTRCTRRALAALYGDGYGFRLPPSSPQKLADVSAPSGGPPPPHSPYSGPPSRGSPVRQSFRKDSGSSSVFAESPGGKARSTGSASTAGAPPSELFPGPGERSLVGFGPPVPAKDTETRERMEAMEKQIASLTGLVQSALLRGSEPETPSEKVEGSNGAATPSAPVCGSGSKSSGATPVSGPPPPSASSTPAGQPTAVSRLQMQLHLRGLQNSASDLRGQLQQLRNVQLQNQESVRALLKPTEADVSMRVSEAARRQEDPLQRQRTLVEEERLRYLNDEELITQQLNDLEKSVEKIQRDVAHNHRLMPGPELEEKALVLKQLGETLTELKAHFPGLQSKMRVVLRVEVEAVKFLKEEPQRLDGLLKRCRGVTDTLAQIRRQVDEGMWPPPNNLLNQSPKKVAAETDFSKGLDFEIPPPSPPLNLHELSGPAEGTPLTPKSTNPTKCLDASSKRNTDKAVSVEAAERDWEEKRAALTQYSAKDINRLLEETQAELLKAIPDLDCASKTHPGPAPTPDHKPPKAPHGQKAAPRTEPSGRRGSDELTVPRYRTEKPSKSPPPPPPRRSFPSSHGLTTTRTGEVVVTSKKDSVFIKKAESEELEVQKPQVKLRRAVSEVVRPASTPPIMASAIKDEDDEERIIAELESGGSSVPPMKVVTPGASRLKAAQGPAGSPDKGKHGKQRTEYMRIQAQQQATKPSKEVSGPNETSSPGSEKPSGSRTSIPVLTSFGARNSSISF
binds | SLC25A22 (protein, UniProt Q9D6M3 1-323) MADKQISLPAKLINGGIAGLIGVTCVFPIDLAKTRLQNQQNGQRMYASMSDCLIKTIRSEGYFGMYRGAAVNLTLVTPEKAIKLAANDFFRHQLSKDGQKLTLPKEMLAGCGAGTCQVIVTTPMEMLKIQLQDAGRIAAQRKILAAQAQLSAQGGAQPSVEAPAPPRPTATQLTRDLLRNHGIAGLYKGLGATLLRDVPFSIVYFPLFANLNQLGRPSSEEKSPFYVSFLAGCVAGSAAAVAVNPCDVVKTRLQSLERGVNEDTYSGFLDCARKIWRHEGPSAFLKGAYCRALVIAPLFGIAQVVYFLGIAESLLGLLQEPQA

Results are given in words; binding and its absence hold for the method and conditions named. Binding seen in cells or lysates may run through a third protein. Here binding means that the protein was enriched with, or labelled near, the bait; the list need not be complete.
